Data published in patent US8053573B2, “Monomer 5, 6-diphenyl-1.2.4-traizinic derivatives and the use thereof” (Pierre Fabre Dermo-Cosmetique, priority 2004, dated 2011).
For at least one compound, name, drawing or mass did not settle the structure.

Tests used:
[1] = Spectral distribution in UVA and UVB (290-400 nm); assay type: physicochemical; conditions: range from 290 nm to 400 nm
Description: The products tested are classified according to spectral distribution in UVA and UVB in a range from 290 nm to 400 nm.
It is possible to differentiate them according to their spectral distribution:
Products with a narrow spectrum: • Products absorbing in the range between 280 nm and 320 nm (UVB) • Products absorbing in the range between 320 nm and 400 nm (UVA) Products with a broad spectrum: • Products absorbing in UVB (280-320 nm) and UVA-II […] • Products covering UVB and UVA (280-400 nm).

[2] = Spectral characteristics: molar extinction coefficient and specific absorbance; assay type: physicochemical; conditions: ethyl acetate, 10 μg/ml
Description: The calculation of the molar extinction coefficient (ε) is made from the Beer-Lambert law:
[formula] Wherein: A=absorbance I0=intensity of the incident light I=intensity of the transmitted light ε=molar extinction (or molar absorbance) coefficient in M^−1 cm^−1 l=path length in cm c=concentration in mol/l
The molar extinction coefficient can be expressed with respect to a given mass of the product. It thus makes it possible to be able to compare the coefficients of extinction between products for the same given quantity. This quantity is 1% by weight. The molar extinction coefficient thus becomes the specific absorbance (A1cm^1%).
[formula] Wherein: A1cm^1%=specific absorbance ε=molar extinction coefficient M=molar mass
The spectral characteristics of the compounds in comparison with commercial filters at a concentration of 10 μg/ml are summarized in tables 2-1 and 2-2.
Procedure: The products are dissolved in ethyl acetate to a concentration of 10 μg/ml. The spectra are measured using a dual-beam spectrophotometer (Varian CARY 50 Scan) between 290 nm and 400 nm.

CCN(CC)c1ccc(-c2nnc(O)nc2-c2ccc(N(CC)CC)cc2)cc1 [JR18, 3-hydroxy-5,6-bis(4-diethylaminophenyl)-1,2,4-triazine]
Spectral distribution [1]: absorb in UVB | Maximum specific absorbance UVB ([2]; A1cm^1%): 591 | Maximum specific absorbance Visible ([2]; A1cm^1%): 483 | Maximum molar extinction coefficient UVB [2]: 23100 M⁻¹ cm⁻¹ | Maximum molar extinction coefficient Visible [2]: 19000 M⁻¹ cm⁻¹ | Wavelength of maximum molar extinction coefficient UVB [2]: at 290 | Wavelength of maximum molar extinction coefficient Visible [2]: at 435 | Wavelength of maximum specific absorbance UVB [2]: at 290 | Wavelength of maximum specific absorbance Visible [2]: at 435
